# Library screening results

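Viability assay of Plasmodium falciparum sporozoites; the read-out is not stated. The concentration is filed as 10 mM, unlikely as a test dose, so the dose is not known. Higher reads as lower viability (inferred: compounds with an IC50 in retests scored well above the rest). Strong results were mostly tested again. Size under these conditions: about 34,000 compounds, about 280 of them at 50% or above in at least one test.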

The filed quantity is “Percent Effect” (%). How 0% and 100% were set is not recorded. Most values in the screen are low, and negative values occur. Compounds were drawn at random from those tested, without regard to their results. Two or more numbers in one place are separate tests of the same structure; such repeats can differ widely.

compound,Percent Effect
CC(C)c1noc(CCC(=O)NCC2CCC(C(N)=O)CC2)n1 (centres undefined),-1.213
CC(C)c1noc(CN2CCCN(Cc3cccs3)CC2)n1,-0.2387
O=C(O)C(F)(F)F.[H][C@@]12CCN(Cc3cc(C)on3)C[C@]1([H])O[C@@H](C(=O)N1CCC(C)CC1)C2,-11.2
CNC(=O)c1cn[nH]c1C1(C)CCCN(Cc2ccccn2)C1 (centres undefined),13.83
CCc1cnc2c(c1NCc1ccncc1)c(=O)n(C)c(=O)n2C,-0.3542
Cc1cc(C)cc(C2(C(=O)NCC(C)CN3CCCC3=O)CC2)c1 (centres undefined),-14.36
COC(=O)C(NC(=O)COC1CCCC1)c1cc(F)ccc1F (centres undefined),-9.812
N#Cc1ccc(CCC(=O)N2CCCC(n3cncn3)C2)cc1 (centres undefined),18.25
CCn1ccnc1CN(C)c1cc(C2CCCNC2)nc(C)n1 (centres undefined),-16.14
[H][C@@]12CN(Cc3cccnc3)CCO[C@]1([H])CN(C(=O)c1cnccn1)C2,8.759
CC(NC(=O)NCCCN(C)S(C)(=O)=O)c1cccc(Cl)c1 (centres undefined),-10.02
O=C(NCCCSC1CCCCC1)C1NCCc2[nH]cnc21 (centres undefined),-4.852
CCNC(=O)c1c2c(N3CCN(C)CC3)ncnc2n2ccccc12,-20.19
CC(C)n1nc(CNc2ncccn2)c2c1CN(C1CCOCC1)CC2.O=C(O)C(F)(F)F,-5.861
O=C(O)C(F)(F)F.[H][C@@]12CCN(c3cnccn3)C[C@]1([H])CN(C(=O)CCC)C2,17.33
CCc1ccc(C(=O)N2CCCN(Cc3nccn3CC)CC2)s1,12.73
COc1ccc(CCNC(=O)C(C)Nc2ccc(C)c(C)c2)cc1 (centres undefined),11.34
Cc1nc(CN2CCC3(CCCN(Cc4cccnc4)C3)C2=O)cs1.O=C(O)C(F)(F)F.O=C(O)C(F)(F)F.O=C(O)C(F)(F)F (centres undefined),12.31
CNc1nc2c(c(C(=O)N3CCCC3)n1)CN(Cc1nccn1C)CC2,9.635
O=C(NCC(F)(F)F)C1CSCN1S(=O)(=O)c1ccc(F)cc1 (centres undefined),-13.6
CC(C)c1nc(C2CCCN(C(=O)CCn3cncn3)C2)no1 (centres undefined),13.35
COc1ccc(CNC(C)c2ccc3[nH]c(=O)[nH]c3c2)cc1 (centres undefined),-0.32
O=C(c1ccsc1)N1CCc2c(COCc3ccncc3)cncc2C1,-12.63
Cc1nc(C(=O)N2CCCN(Cc3cnn(C)c3)CC2)ccc1C#N,7.652
Cc1cc(CN(C)C(=O)NCc2ccnc(SC(C)(C)C)c2)no1,-8.269
COc1ccc(NC(=O)N2CCCCCC2c2ccncc2)cn1 (centres undefined),4.013
Cc1nc(CN(C)C2CCN(Cc3ccc4c(c3)OCCO4)C2)no1 (centres undefined),-17.57
Cc1ccc(C(=O)N2CCC(Oc3cccc(C)c3C)CC2)c(=O)[nH]1,2.747
O=C(c1cccnc1O)N(Cc1ccsc1)CC1CCCO1 (centres undefined),-2.941
O=C(C1CC1)N1CCCC1C1CCN(Cc2ccccc2)CC1 (centres undefined),-14.32
CC(C)n1ccnc1CN1CCCN(C(=O)CC2CCCO2)CC1 (centres undefined),14.8
Cc1cc(C2CCCCN2C(=O)c2cccn2C)nc2nccn12 (centres undefined),4.02
Cc1cs/c(=N/C(=O)c2csc(NCC(C)C)n2)[nH]1,-15.12 and -26.88
CCOCC(O)CN1CCN(C(=O)C2CC2)CC1 (centres undefined),6.08
Cc1noc(COCC(=O)Nc2ccc(Br)c(C)n2)n1,-5.257
CC(C)S(=O)(=O)CC(=O)N1CCCC(n2ccnc2)C1 (centres undefined),7.436
COc1ccccc1CC1CCN(C(=O)CCN2CCOC2=O)CC1,-13.94
CC(Cn1cccn1)NC(=O)NCc1cccnc1 (centres undefined),4.796
Cc1cccc(C)c1Nc1noc2c1CN(C(=O)c1c[nH]nc1C)CC2,11.49
Cc1csc(N2CCN(CC(=O)Nc3cc(C)nn3C)CC2C)n1 (centres undefined),-16.53
[H][C@]12CCN(C(=O)CCC(C)C)CC[C@@]1([H])S(=O)(=O)CCN2S(C)(=O)=O,12.09
Cc1cc(C(=O)NCCN2CCCCC2C)nn1C(C)(C)C (centres undefined),-15.22
COCCN1CCC(CN(C)c2nc3c(s2)c(C)nn3C)C1 (centres undefined),5.367
COC(=O)C1CCCN1C(=O)c1ccc(-n2nc(C)cc2C)cc1 (centres undefined),-3.264
Cc1ccn(CCC(=O)NCc2ccco2)n1,-3.85
O=C(CSC1=NS(=O)(=O)c2cc(F)ccc2N1)Nc1cccc(Cl)c1,-2.57
CCS(=O)(=O)N1CC(=O)N(CCOc2ccccc2)CC(O)C1 (centres undefined),0.8612
Cl.Cl.O=C(NCc1cncc2c1CCN(C1CCOCC1)C2)c1ccno1,6.764

3 of the entries, repeated:

{"compound": "COc1ccc(CNC(C)c2ccc3[nH]c(=O)[nH]c3c2)cc1", "stereo": "centres undefined", "Percent Effect": -0.32}
{"compound": "Cc1csc(N2CCN(CC(=O)Nc3cc(C)nn3C)CC2C)n1", "stereo": "centres undefined", "Percent Effect": -16.53}
{"compound": "Cc1cs/c(=N/C(=O)c2csc(NCC(C)C)n2)[nH]1", "Percent Effect": "-15.12 and -26.88"}

Measurements from “University of Dundee, Small-Polar-MMV Screening Library” (2021), ChEMBL document CHEMBL3988442.